In patent US20190159451A1, “ACTIVE COMPOUND COMBINATIONS AND METHODS TO PROTECT THE PROPAGATION MATERIAL OF PLANTS” (Bayer CropScience Aktiengesellschaft, priority 2016, published 2019):
Some results were stated once for a whole list of compounds, not compound by compound.

These molecules were tested on Lucilia cuprina (assay: Lucilia cuprina test (LUCICU)). Details: 100 ppm, after 2 days, 1st instar larvae.
Format: in vivo
Protocol: Lucilia cuprina—Test (LUCICU)
Solvent: dimethyl sulfoxide
10 mg active compound are dissolved in 0.5 ml Dimethylsulfoxid. Serial dilutions are made to obtain the desired rates.
Approximately 20 1st instar larvae of the Australian sheep blowfly (Lucilia cuprina) are transferred into a test tube containing minced horse meat and compound solution of the desired concentration.
After 2 days mortality in % is determined. 100% means all the larvae have been killed; 0% means none of the larvae have been killed.

Row | SMILES | mortality [%]
1 | O=C(C=C1SCCN1Cc1ccc(Br)nc1)C(F)(F)F [Example I-4] | 100
2 | O=C(C=C1NCCN1Cc1ccc(Cl)nc1)C(F)(F)F [Example I-5] | 100
3 | O=C(C=C1NCCCN1Cc1ccc(F)nc1)C(F)(F)F [Example I-6] | 100
4 | O=C(C=C1NCCCN1Cc1ccc(Cl)nc1)C(F)(F)F [Example I-7] | 100
5 | O=C(C=C1NCCCN1Cc1ccc(Br)nc1)C(F)(F)F [Example I-8] | 100
